Reference: PMC6545562, “Slx5/Slx8‐dependent ubiquitin hotspots on chromatin contribute to stress tolerance” (The EMBO Journal, 2019)
No constants are given. Whether binding was seen depends on the method and setting. Where a sequence is shown, tags or fusion partners need not be part of it.

Biological target: T1, BD-Slx5-RING∆ (S. cerevisiae) (UniProt P32828)
T1 sequence: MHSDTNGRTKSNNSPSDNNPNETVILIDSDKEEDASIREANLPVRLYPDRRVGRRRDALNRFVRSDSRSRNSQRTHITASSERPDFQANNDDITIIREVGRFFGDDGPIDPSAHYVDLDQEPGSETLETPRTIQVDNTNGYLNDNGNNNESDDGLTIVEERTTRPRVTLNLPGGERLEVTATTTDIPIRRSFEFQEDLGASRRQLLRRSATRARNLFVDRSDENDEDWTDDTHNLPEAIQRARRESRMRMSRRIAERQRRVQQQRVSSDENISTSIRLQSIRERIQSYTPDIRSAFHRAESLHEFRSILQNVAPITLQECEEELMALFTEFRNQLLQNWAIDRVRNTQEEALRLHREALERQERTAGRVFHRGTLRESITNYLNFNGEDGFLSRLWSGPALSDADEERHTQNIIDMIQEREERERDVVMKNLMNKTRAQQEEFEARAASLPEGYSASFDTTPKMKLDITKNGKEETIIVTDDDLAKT
Assay: two-hybrid; Euc1 constructs against BD-Slx5 constructs, performed as in Fig 4A; serial dilutions spotted, 30°C, 2 to 4 days

binding: no binding
Substance: Euc1 with the coiled-coil (CC) domain truncated, yeast two-hybrid fusion (S. cerevisiae) (domain or fragment)
